Test system: additional tumor types
Assay: LC-MS detection and over-presentation of the peptides on additional tumor types, cell lines and primary cultures
Design: species or system human
Details: for Additional organs/cancerous diseases: additional tumor types with over-presentation on more than 5% of the measured tumor samples, or presentation on more than 5% with ratio of geometric means tumor vs normal tissues larger than 3; for Other relevant organs/ cancerous diseases: Table 4A: additional tumor types on which the peptide was found, over-presented on more than 5% of measured tumor samples, or presented on more than 5% with ratio of geometric means tumor vs normal tissues larger than 3

Substance	Additional organs/cancerous diseases	Other relevant organs/ cancerous diseases	other results
532 (ALNNLLHSL; listed as Homo sapiens) [compound 532]	Melanoma, Esophageal Cancer, Urinary Bladder Cancer, Uterine Cancer, Gallbladder Cancer and Bile Duct Cancer, AML, NHL	–	–
533 (RMVAEIQNV; listed as Homo sapiens) [compound 533]	CLL, NHL	Leukemia, Esophageal Cancer	–
534 (HLANIVERL; listed as Homo sapiens) [compound 534]	CLL	–	–
535 (KLIAQNLEL; listed as Homo sapiens) [compound 535]	AML, NHL, HNSCC	Colon, Rectum	–
536 (YLVEGRFSV; listed as Homo sapiens) [compound 536]	CLL, Urinary Bladder Cancer	Leukemia	–
542 (RVWDISTVSSV; listed as Homo sapiens) [compound 542]	NSCLC, CLL, BRCA	SCLC, Leukemia, Melanoma, Esophageal Cancer	–
544 (LLWDVPAPSL; listed as Homo sapiens) [compound 544]	CLL, Uterine Cancer, HNSCC	Leukemia, Melanoma	–
547 (TLDITPHTV; listed as Homo sapiens) [compound 547]	Esophageal Cancer	–	–
548 (ALWENPESGEL; listed as Homo sapiens) [compound 548]	BRCA	–	–
549 (AMLENASDIKL; listed as Homo sapiens) [compound 549]	SCLC, CLL, Urinary Bladder Cancer	Melanoma	–
552 (GLLDLPFRVGV; listed as Homo sapiens) [compound 552]	CLL, AML, NHL	SCLC, Brain Cancer, Leukemia, Melanoma	–
553 (SLLNQDLHWSL; listed as Homo sapiens) [compound 553]	CLL	–	–
555 (YVLEGLKSV; listed as Homo sapiens) [compound 555]	CRC, CLL, Esophageal Cancer, Urinary Bladder Cancer, Uterine Cancer, NHL, HNSCC	SCLC, Melanoma	–
556 (FLTDLEDLTL; listed as Homo sapiens) [compound 556]	CLL, Uterine Cancer, NHL	SCLC, Leukemia	–
559 (VTVPPGPSL; listed as Homo sapiens) [compound 559]	CLL, AML	Leukemia	–
567 (SLLPLDDIVRV; listed as Homo sapiens) [compound 567]	CLL, BRCA	Leukemia	–
571 (LLLTTIPQI; listed as Homo sapiens) [compound 571]	Melanoma	Prostate, Leukemia	–
572 (ALADLIEKELSV; listed as Homo sapiens) [compound 572]	CLL, NHL	Leukemia	–
573 (ILVANAIVGV; listed as Homo sapiens) [compound 573]	CLL, SCLC, Urinary Bladder Cancer	NSCLC, HCC, Leukemia, Melanoma	–
577 (VMFEDGVLMRL; listed as Homo sapiens) [compound 577]	SCLC, CLL, Urinary Bladder Cancer, AML, NHL, HNSCC	Colon, Rectum, Leukemia	–
578 (FLDPGGPMMKL; listed as Homo sapiens) [compound 578]	SCLC, CLL, BRCA, Urinary Bladder Cancer, HNSCC	NSCLC, CRC, MCC, Melanoma	–
580 (LLMENAERV; listed as Homo sapiens) [compound 580]	CLL, Esophageal Cancer, Urinary Bladder Cancer, Uterine Cancer, NHL, HNSCC	CRC, Leukemia, BrCa, Melanoma	–
581 (RLWNETVEL; listed as Homo sapiens) [compound 581]	AML, NHL	SCLC, Colon, Rectum	–
582 (TLCDVILMV; listed as Homo sapiens) [compound 582]	Melanoma	–	–
583 (ILANDGVLLAA; listed as Homo sapiens) [compound 583]	CLL, BRCA, Urinary Bladder Cancer, Uterine Cancer, Gallbladder Cancer and Bile Duct Cancer, NHL, HNSCC	HCC, Esophageal Cancer	–
584 (ALAEVAAMENV; listed as Homo sapiens) [compound 584]	–	Melanoma	–

Substance	Additional organs/cancerous diseases	Other relevant organs/ cancerous diseases	other results
585 (ALWDLAADKQTL; listed as Homo sapiens) [compound 585]	Melanoma	Urinary bladder Cancer	–
592 (RLLSAAENFL; listed as Homo sapiens) [compound 592]	–	SCLC, Brain Cancer, BrCa, Esophageal Cancer	–
594 (IMLKGDNITL; listed as Homo sapiens) [compound 594]	Uterine Cancer	Esophageal Cancer	–
596 (ALLDQTKTLAESAL; listed as Homo sapiens) [compound 596]	CLL, NHL	Leukemia, Melanoma	–
598 (FLFPHSVLV; listed as Homo sapiens) [compound 598]	CRC	–	–
600 (ALAAPDIVPAL; listed as Homo sapiens) [compound 600]	CLL, Uterine Cancer, AML	Leukemia	–
604 (SILDRDDIFV; listed as Homo sapiens) [compound 604]	CLL, Melanoma, NHL	Leukemia	–
605 (KLYEAVPQL; listed as Homo sapiens) [compound 605]	Gallbladder Cancer and Bile Duct Cancer, HNSCC	–	–
607 (RLYSGISGLEL; listed as Homo sapiens) [compound 607]	CLL, Melanoma, AML, NHL	NSCLC	–
608 (SLLSVSHAL; listed as Homo sapiens) [compound 608]	–	RCC	–
609 (ALWKQLLEL; listed as Homo sapiens) [compound 609]	CRC, Esophageal Cancer, Uterine Cancer	–	–
611 (YLLDDGTLVV; listed as Homo sapiens) [compound 611]	Uterine Cancer	HCC, Melanoma	–
612 (YLYNEGLSV; listed as Homo sapiens) [compound 612]	BRCA, Urinary Bladder Cancer, AML, NHL, HNSCC	–	–
614 (LLLPDQPPYHL; listed as Homo sapiens) [compound 614]	CLL	Melanoma	–
615 (VLPPDTDPA; listed as Homo sapiens) [compound 615]	Melanoma, Esophageal Cancer	–	–
617 (ALMYESEKVGV; listed as Homo sapiens) [compound 617]	–	HCC, Gallbladder, Bile duct	–
620 (KLLNKIYEA; listed as Homo sapiens) [compound 620]	BRCA, AML	Brain Cancer	–
621 (VLMDRLPSLL; listed as Homo sapiens) [compound 621]	CLL	Melanoma	–
622 (RLLGEEVVRVLQA; listed as Homo sapiens) [compound 622]	Urinary Bladder Cancer, AML, NHL	NSCLC, SCLC, CRC, Melanoma	–
623 (YLVEDIQHI; listed as Homo sapiens) [compound 623]	NSCLC, PC	–	–
624 (FLQEEPGQLL; listed as Homo sapiens) [compound 624]	CLL, Urinary Bladder Cancer, Uterine Cancer, Gallbladder Cancer and Bile Duct Cancer, NHL	Leukemia, Melanoma, Esophageal Cancer	–
628 (KLWEFFQVDV; listed as Homo sapiens) [compound 628]	Melanoma	SCLC, Brain Cancer, HCC	–
633 (ALSRVSVNV; listed as Homo sapiens) [compound 633]	CLL	Melanoma, Esophageal Cancer	–
635 (SLDSTLHAV; listed as Homo sapiens) [compound 635]	SCLC, Melanoma, Urinary Bladder Cancer, Uterine Cancer, Gallbladder Cancer and Bile Duct Cancer	NSCLC, Brain Cancer, CRC, HCC, BrCa, Esophageal Cancer	–
636 (LLTEIRAVV; listed as Homo sapiens) [compound 636]	CLL, NHL	–	–
ALLENPKMEL (listed as Homo sapiens) [SEQ ID NO.: 441]	–	–	number of samples with detectable presentation of the peptide (breast cancers): 1; number of samples with detectable presentation of the peptide (cancer tissues, total): 26; number of samples with detectable presentation of the peptide (cell lines and primary cultures): 5; number of samples with detectable presentation of the peptide (colon cancers): 1; number of samples with detectable presentation of the peptide (esophageal cancers): 1; number of samples with detectable presentation of the peptide (head and neck cancers): 1; number of samples with detectable presentation of the peptide (liver cancers): 2; number of samples with detectable presentation of the peptide (lung cancers): 10; number of samples with detectable presentation of the peptide (prostate cancers): 1; number of samples with detectable presentation of the peptide (rectum cancers): 1; number of samples with detectable presentation of the peptide (urinary bladder cancers): 2; number of samples with detectable presentation of the peptide (uterus cancers): 1

Source: patent publication US11230581B2, “Peptides and combination of peptides for use in immunotherapy against ovarian cancer and other cancers” (Immatics Biotechnologies GmbH, priority 2015, dated 2022)
